Results are given in words; binding and its absence hold for the method and conditions named. Binding seen in cells or lysates may run through a third protein. A yes stands for co-enrichment or nearness to the bait. Other partners may have been found.
B1: PHB1, endogenous mouse (protein, UniProt P67778 1-272)
chain: MAAKVFESIGKFGLALAVAGGVVNSALYNVDAGHRAVIFDRFRGVQDIVVGEGTHFLIPWVQKPIIFDCRSRPRNVPVITGSKDLQNVNITLRILFRPVASQLPRIYTSIGEDYDERVLPSITTEILKSVVARFDAGELITQRELVSRQVSDDLTERAATFGLILDDVSLTHLTFGKEFTEAVEAKQVAQQEAERARFVVEKAEQQKKAAIISAEGDSKAAELIANSLATAGDGLIELRKLEAAEDIAYQLSRSRNITYLPAGQSVLLQLPQ
B2: HTRA2/Omi, endogenous mouse (enzyme, UniProt Q9JIY5 134-458)
chain: AVPAPPPTSPRSQYNFIADVVEKTAPAVVYIEILDRHPFSGREVPISNGSGFVVASDGLIVTNAHVVADRRRVRVRLPSGDTYEAMVTAVDPVADIATLRIQTKEPLPTLPLGRSADVRQGEFVVAMGSPFALQNTITSGIVSSAQRPARDLGLPQNNVEYIQTDAAIDFGNSGGPLVNLDGEVIGVNTMKVTAGISFAIPSDRLREFLHRGEKKNSWFGTSGSQRRYIGVMMLTLTPSILIELQLREPSFPDVQHGVLIHKVILGSPAHRAGLRPGDVILAIGEKLAQNAEDVYEAVRTQSQLAVRIRRGSETLTLYVTPEVTE
B3: MIC25, endogenous mouse (protein, UniProt Q91VN4 1-273)
chain: MGSAESAEARRVSFEMDEEERVRVLQGIRLSESVVNRMKDCSQPSAGEQLVPGFGPSSSAPVPTVPLPAISVPTVPAPTTPVPTAPSSSVRGLPGGTCKGPLTDVKVPSAESGGGLQSSAVKEDLKKFQQEQLAVQDEMVRVAKKEKEAAEKHLKASLPKKKASLTHEQQQSARLARELEDREAELSRRDTFYKEQQGRIQEKNAELYKLSSQQFHEAASKAESTIKPRRVEPVCSGLQAQILRCYRDHLHEVLLCSDLVKAYQHCVSTARKG
B4: MIC27, endogenous mouse (protein, UniProt Q78IK4 28-265)
chain: EEEPKKQLVRPDQLPIYTAPPLHSKYVEEQPGNLQRGFASIRTTTVYYIGWCKSIYLFMKNGVMDTVQFGKDAYVYLKNPPQDFLPKMGVITASGLAGLLSARKGSRFKKIAYPLGLATLGATVCYPAQSVIIAKITGKKAYATSQQIFQAIKSLWTQKSENESLPEPKEESKEGRSDEIHASLPDLKHSVSLPKELASATVIKSESTSGTTQFIPDPKLMDHGQSHPDDKDMYSTRS
B5: MIC19, endogenous mouse (protein, UniProt Q9CRB9 1-227)
chain: MGGTASTRRVTFEADENENITVVKGIRLSENVIDRMKESSPSGSKSQRYSSVYGASVSDEDLKRRVAEELALEQAKKESEHQRRLKQARDLERERAAANEQLTRAVLRERISSEEERMKAKHLARQLEEKDRVMRKQDAFYKEQLARLEERSSEFYKVTTEEYQKAAEEVEAKFKRYEYHPVCADLQTKILQCYRQNTQQTLSCSALASQYMHCVNHAKQSMLEKGG

Protein sequences, listed by entry. Tags and fused reporters are not part of them. Lines headed by an entry give the natural chain unless they say otherwise; changes in a name come on top. Residues count along the entry.
UniProt Q9D8H7: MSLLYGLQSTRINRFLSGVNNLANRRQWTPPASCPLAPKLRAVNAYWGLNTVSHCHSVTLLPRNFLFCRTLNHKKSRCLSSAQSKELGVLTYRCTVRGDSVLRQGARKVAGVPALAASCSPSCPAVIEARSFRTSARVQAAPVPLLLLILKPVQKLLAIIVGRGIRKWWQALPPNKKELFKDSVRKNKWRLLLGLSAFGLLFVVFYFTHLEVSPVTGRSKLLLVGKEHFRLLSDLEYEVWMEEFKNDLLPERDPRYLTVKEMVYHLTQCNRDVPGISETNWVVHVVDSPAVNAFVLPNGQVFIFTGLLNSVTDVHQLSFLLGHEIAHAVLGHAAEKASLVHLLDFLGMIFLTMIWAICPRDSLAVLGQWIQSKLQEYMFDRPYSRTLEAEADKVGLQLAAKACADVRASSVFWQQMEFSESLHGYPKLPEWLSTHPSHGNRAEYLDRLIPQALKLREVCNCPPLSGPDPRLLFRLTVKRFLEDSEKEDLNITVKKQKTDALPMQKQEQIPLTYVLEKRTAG
UniProt Q9Z0X1: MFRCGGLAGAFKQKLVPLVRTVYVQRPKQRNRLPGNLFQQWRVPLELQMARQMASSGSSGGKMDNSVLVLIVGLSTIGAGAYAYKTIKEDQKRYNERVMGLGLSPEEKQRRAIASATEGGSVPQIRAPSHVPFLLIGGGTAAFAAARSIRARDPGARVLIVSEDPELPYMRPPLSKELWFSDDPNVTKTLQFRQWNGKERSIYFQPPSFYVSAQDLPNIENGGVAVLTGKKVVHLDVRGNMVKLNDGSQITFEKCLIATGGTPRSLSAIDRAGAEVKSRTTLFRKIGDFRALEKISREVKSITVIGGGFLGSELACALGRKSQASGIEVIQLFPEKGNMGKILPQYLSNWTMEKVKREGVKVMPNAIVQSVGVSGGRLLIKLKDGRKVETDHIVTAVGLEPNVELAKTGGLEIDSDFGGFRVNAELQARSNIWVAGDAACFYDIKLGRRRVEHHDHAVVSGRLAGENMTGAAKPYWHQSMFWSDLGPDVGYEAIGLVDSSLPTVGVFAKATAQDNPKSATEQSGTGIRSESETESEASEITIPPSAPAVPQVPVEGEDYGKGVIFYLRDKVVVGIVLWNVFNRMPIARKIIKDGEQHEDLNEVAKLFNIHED
UniProt P58281, residues 88-960: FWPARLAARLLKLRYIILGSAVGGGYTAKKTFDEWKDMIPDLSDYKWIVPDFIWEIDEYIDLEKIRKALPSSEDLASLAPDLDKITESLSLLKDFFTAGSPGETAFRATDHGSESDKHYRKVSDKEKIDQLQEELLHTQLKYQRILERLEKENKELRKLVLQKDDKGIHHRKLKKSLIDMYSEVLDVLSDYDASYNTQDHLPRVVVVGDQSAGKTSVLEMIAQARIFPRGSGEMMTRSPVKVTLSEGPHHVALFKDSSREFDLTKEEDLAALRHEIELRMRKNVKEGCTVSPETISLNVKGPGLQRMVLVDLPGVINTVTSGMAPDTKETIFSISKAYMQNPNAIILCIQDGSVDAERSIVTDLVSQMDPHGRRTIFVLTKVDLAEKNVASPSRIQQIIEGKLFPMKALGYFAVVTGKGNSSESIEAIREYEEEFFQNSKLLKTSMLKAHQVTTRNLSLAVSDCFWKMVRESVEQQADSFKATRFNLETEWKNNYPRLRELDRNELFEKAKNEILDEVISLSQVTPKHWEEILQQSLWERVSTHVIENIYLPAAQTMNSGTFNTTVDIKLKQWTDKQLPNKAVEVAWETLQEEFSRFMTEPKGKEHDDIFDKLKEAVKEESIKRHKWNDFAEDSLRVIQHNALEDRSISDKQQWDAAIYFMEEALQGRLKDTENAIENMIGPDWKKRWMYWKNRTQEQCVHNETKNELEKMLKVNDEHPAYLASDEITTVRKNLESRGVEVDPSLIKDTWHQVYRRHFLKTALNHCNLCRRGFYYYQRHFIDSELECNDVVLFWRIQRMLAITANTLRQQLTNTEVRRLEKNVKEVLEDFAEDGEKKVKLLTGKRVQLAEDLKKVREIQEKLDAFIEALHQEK
UniProt O35129: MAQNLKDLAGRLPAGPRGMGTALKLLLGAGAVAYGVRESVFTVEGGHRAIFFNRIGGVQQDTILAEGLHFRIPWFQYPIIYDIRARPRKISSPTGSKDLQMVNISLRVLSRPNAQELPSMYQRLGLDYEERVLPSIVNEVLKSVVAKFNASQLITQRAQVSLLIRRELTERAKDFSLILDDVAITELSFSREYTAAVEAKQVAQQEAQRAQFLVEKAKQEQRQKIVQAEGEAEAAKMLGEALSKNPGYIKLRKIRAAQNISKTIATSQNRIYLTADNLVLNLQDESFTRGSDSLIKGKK

Target: carboxyl-terminal Myc-tagged murine OMA1 (murine) (UniProt Q9D8H7)
Test: affinity purification with mass spectrometry; OMA1 KO MEFs with or without OMA1/Myc, 0.2% formaldehyde 15 min 37 °C, mitochondria lysed in 0.5% digitonin, anti-Myc (My3) and Protein G beads, label-free LC-MS/MS; some hits re-measured by PRM

binding | Molecule
binds | apoptosis-inducing factor mitochondria-associated 1 (AIFM1), endogenous mouse (from UniProt Q9Z0X1)
binds | OPA1, endogenous mouse (from UniProt P58281 88-960)
binds | PHB2, endogenous mouse (from UniProt O35129 1-299)
binds | B1
binds | B2
binds | B3
binds | B4
binds | B5

Source: paper PMC13226697, “Stress-induced OMA1-mediated cleavage of AIFM1 suppresses cell growth by controlling mitochondrial OXPHOS activity” (The EMBO Journal, 2026)
